Among the data in PMC3032750 are binding values, retold here.

By UniProt entry, the sequences of proteins in these tests, tags left out.
UniProt P03129: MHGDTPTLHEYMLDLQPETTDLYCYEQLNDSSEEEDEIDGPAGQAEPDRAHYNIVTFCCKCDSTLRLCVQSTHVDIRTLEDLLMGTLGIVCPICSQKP

These are yes or no findings as the source states them, for the method shown. Some results given as binding are weak or reduced against the parent protein; the word gives no strength. Sequences can lack the tags named with a protein.

This test concerns the target HPV16 E7 oncoprotein, full-length recombinant (HPV 16) (UniProt P03129). Nature of the test: SPR; BIAcoreX; E7 amine-coupled to a CM5 chip; GST-pRb injected at 0-400 nM, followed by scFv 43M2 at 200 nM, 20 ul/min; HBS-P (10 mM Hepes pH 7.4, 0.15 M NaCl, 0.005% P20), 25 C; both purified.

B1: GST-pRb fusion protein (retinoblastoma protein) (protein, UniProt P06400 1-928)
chain: MPPKTPRKTAATAAAAAAEPPAPPPPPPPEEDPEQDSGPEDLPLVRLEFEETEEPDFTALCQKLKIPDHVRERAWLTWEKVSSVDGVLGGYIQKKKELWGICIFIAAVDLDEMSFTFTELQKNIEISVHKFFNLLKEIDTSTKVDNAMSRLLKKYDVLFALFSKLERTCELIYLTQPSSSISTEINSALVLKVSWITFLLAKGEVLQMEDDLVISFQLMLCVLDYFIKLSPPMLLKEPYKTAVIPINGSPRTPRRGQNRSARIAKQLENDTRIIEVLCKEHECNIDEVKNVYFKNFIPFMNSLGLVTSNGLPEVENLSKRYEEIYLKNKDLDARLFLDHDKTLQTDSIDSFETQRTPRKSNLDEEVNVIPPHTPVRTVMNTIQQLMMILNSASDQPSENLISYFNNCTVNPKESILKRVKDIGYIFKEKFAKAVGQGCVEIGSQRYKLGVRLYYRVMESMLKSEEERLSIQNFSKLLNDNIFHMSLLACALEVVMATYSRSTSQNLDSGTDLSFPWILNVLNLKAFDFYKVIESFIKAEGNLTREMIKHLERCEHRIMESLAWLSDSPLFDLIKQSKDREGPTDHLESACPLNLPLQNNHTAADMYLSPVRSPKKKGSTTRVNSTANAETQATSAFQTQKPLKSTSLSLFYKKVYRLAYLRLNTLCERLLSEHPELEHIIWTLFQHTLQNEYELMRDRHLDQIMMCSMYGICKVKNIDLKFKIIVTAYKDLPHAVQETFKRVLIKEEEYDSIIVFYNSVFMQRLKTNILQYASTRPPTLSPIPHIPRSPYKFPSSPLRIPGGNIYISPLKSPYKISEGLPTPTKMTPRSRILVSIGESFGTSEKFQKINQMVCNSDRVLKRSAEGSNPPKPLKKLRFDIEGSDEADGSKHLPGESKFQQKLAEMTSTRTRMQKQKMNDSMDTSNKEEK
As to B1, the binding entry is reported as “binds”.
